# Source: the supplement of paper PMC3334620
# The full ranking holds about 33,000 sequences; the median of “E-score (-0.5 to 0.5)” is about -0.016, and the highest 2% start at about 0.3. This is one part of the list.
# Biological target: T1, Yer184c (UniProt P39961)
# T1 sequence: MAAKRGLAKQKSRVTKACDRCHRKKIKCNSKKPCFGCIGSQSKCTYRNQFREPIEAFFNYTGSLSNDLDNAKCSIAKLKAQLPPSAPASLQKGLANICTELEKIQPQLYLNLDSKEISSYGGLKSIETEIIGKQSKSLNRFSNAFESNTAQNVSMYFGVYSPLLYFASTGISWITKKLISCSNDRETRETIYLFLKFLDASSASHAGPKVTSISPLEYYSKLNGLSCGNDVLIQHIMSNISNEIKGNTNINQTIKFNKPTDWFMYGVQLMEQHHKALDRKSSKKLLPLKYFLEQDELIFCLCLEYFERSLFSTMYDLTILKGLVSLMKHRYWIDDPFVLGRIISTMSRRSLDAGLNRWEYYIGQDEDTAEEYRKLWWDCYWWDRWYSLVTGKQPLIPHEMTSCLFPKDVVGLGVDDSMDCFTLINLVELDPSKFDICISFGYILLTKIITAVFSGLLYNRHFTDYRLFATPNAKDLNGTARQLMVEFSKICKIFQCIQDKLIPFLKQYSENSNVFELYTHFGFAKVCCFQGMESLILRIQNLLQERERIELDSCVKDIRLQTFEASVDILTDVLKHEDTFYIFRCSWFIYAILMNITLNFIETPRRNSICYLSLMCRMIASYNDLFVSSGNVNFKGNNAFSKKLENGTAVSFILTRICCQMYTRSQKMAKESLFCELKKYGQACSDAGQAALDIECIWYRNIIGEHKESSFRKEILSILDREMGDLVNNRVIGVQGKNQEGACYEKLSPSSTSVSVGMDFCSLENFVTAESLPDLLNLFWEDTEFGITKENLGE
# Assay: PBM E-score (8-mer binding enrichment) (E-score (-0.5 to 0.5)); higher = stronger / more preferred TF binding
# Details: protein concentration: 100 nM; construct: GST-full length
# Method in brief: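 Bound GST-tagged yeast transcription factors, applied at about 100-200 nM to double-stranded universal all-10-mer Agilent arrays, were detected with fluorescent anti-GST. Scans were normalised with masliner. A modified Wilcoxon-Mann-Whitney statistic, the E-score, was assigned to each ungapped eight-base word pooled with its reverse complement by the Universal PBM Analysis Suite.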
row,Sequence,PBM E-score
1,GACGAAGA,0.0167
2,ATAATTGA,0.104
3,CGTGTAAC,-0.0498
4,ATCCCTCC,-0.0857
5,GACTTAGC,-0.214
6,ACTTGTAG,-0.0776
7,ACCTCGGC,0.238
8,ACAGTGCC,0.102
9,TCCTCGAA,0.0309
10,GAAAATTC,0.168
11,ATCCGCAC,0.158
12,GGATACAC,-0.0694
13,CACAATCA,0.00768
14,CCATAAAG,0.053
15,AGACGCAT,-0.0112
16,ATCTTGCC,0.0494
17,GAACCGCC,-0.0289
18,TCCCCGGA,0.224
19,CTAGTTTC,-0.0582
20,CGTTCGCC,-0.0277
21,CAGGGGAA,-0.196
22,CGTAAGGC,-0.259
23,CTGATAAC,0.119
24,ATCTAAAA,0.0903
25,AATTTTTC,0.155

row,Sequence,PBM E-score
1,CGCACTCC,-0.173
2,ACCCGAAT,0.104
3,ACTGACTG,-0.23
4,TAATACTA,0.275
5,AACGGACA,0.202
6,CCTAATGC,-0.233
7,AGGCGTAC,0.00758
8,ACGGAGCC,0.0323
9,ATAATGAG,-0.0643
10,CACACCTG,-0.271
11,GCCTACCA,-0.123
12,AGGCACGG,0.0207
13,CTCAGTTC,-0.0629
14,GCATAGTA,0.0529
15,AAGACGTG,0.0213
16,AGATTGAT,-0.071
17,GCCGTCTA,-0.066
18,CATGTTGA,0.192
19,CCATGCTA,-0.152
20,ATCTGTCG,0.119
21,ATCCCTTA,-0.0553
22,TCTTCAAA,0.11
23,GTAACAAC,0.0579
24,AAGTCTTA,-0.158
25,GCTAACAA,0.0634

row,Sequence,PBM E-score
1,GGCGTGCA,-0.0643
2,GTGCATGA,-0.0788
3,CTCATCGC,-0.0826
4,CGTCGATC,0.142
5,ACCATAGA,0.0649
6,TACACACA,0.11
7,CTAACAAA,0.104
8,AACCAGTA,0.163
9,AAACTGAT,-0.0499
10,TACCCTAA,-0.085
11,GTGCAACA,-0.105
12,AGGTTTAT,0.163
13,GTGTGATA,0.142
14,CGATGTTA,0.113
15,CCTGTGCG,-0.0953
16,CAACTTAA,0.132
17,AGTAGAAA,0.196
18,CACTTACC,0.0218
19,TGCCATAA,-0.106
20,CGGGGAAA,0.15
21,GAAGTAAC,0.0995
22,GACGTTAC,-0.0321
23,GTCTGGAA,-0.179
24,AAGGAGCG,-0.206
25,AGGGTACC,-0.315

row,Sequence,PBM E-score
1,GCGACATA,0.0501
2,AATTCACC,0.144
3,GATATCCC,0.0854
4,AAGATGGC,-0.0885
5,ATGATCGA,0.031
6,CAATGTGC,0.0974
7,GATATGCA,0.0861
8,ACGGATCC,0.288
9,TGGCCAAA,-0.176
10,ACCACCTC,-0.00721
11,GGAGGGTA,-0.141
12,CCCTACAA,-0.0677
13,CGCCAGTA,-0.187
14,GATCGTAC,-0.108
15,AAGGTCCG,0.111
16,CAGTTTCC,0.133
17,GATTCGCC,0.0327
18,ACATCTCT,-0.143
19,AACATTTG,-0.0185
20,CTAGCTTC,0.156
21,AGTCGTCA,-0.257
22,GGCAAAAA,0.214
23,AAAACGCG,0.138
24,CCAATCTA,-0.11
25,AATCCCGC,0.115

row,Sequence,PBM E-score
1,AGTAAGTC,-0.215
2,GCCTGACA,-0.156
3,CTATCTAC,0.00721
4,TACCAACA,-0.0192
5,TCTGTGCA,0.0157
6,TGGAGAAA,-0.0333
7,CGGCATCC,0.253
8,AAGCAGGT,-0.127
9,ACCGGAGC,0.247
10,CGAATACG,0.127
11,CAACCTCG,0.0973
12,CTGTAAAC,-0.124
13,CGTATACC,-0.0886
14,TAGAGGGA,-0.199
15,CTTCCCTC,-0.208
16,ACCTCCCT,-0.291
17,ACGCCACA,-0.0484
18,ACTAAGAC,0.106
19,GTTCGCGA,0.311
20,GAGCCGCC,0.0613
21,CTCGTCAA,-0.132
22,CTGTCCCA,-0.156
23,AGTTATAC,0.125
24,ACCGAGAC,0.0458
25,CCTCAGCC,-0.233

row,Sequence,PBM E-score
1,GGTCAACC,-0.0565
2,GAGAGCAA,0.0598
3,GAATCGTA,-0.0517
4,AGCTTTAA,0.117
5,AGATTACA,0.0368
6,GCTAAACC,0.0346
7,TCGTATAA,0.19
8,CCAAAGAG,-0.0125
9,AATTTTGG,0.0485
10,AAATAACC,0.0509
11,GAGGTGAA,-0.0223
12,CCCACATC,-0.0896
13,CAACCGTG,0.0392
14,ACGAGTAC,0.0638
15,AGAGGAGG,-0.344
16,ATACGCCA,-0.0438
17,CGGCGGGA,0.24
18,AAGGAATA,0.0561
19,CACGCCCA,-0.172
20,GCATGTCA,-0.156
21,CGTCGAAA,0.161
22,GCTTCAAC,-0.0434
23,CCCTCCGG,0.1
24,GGCCGAAC,0.305
25,GCCCTAAC,0.111

row,Sequence,PBM E-score
1,AAGGACTG,0.00267
2,GTTCCCGA,0.179
3,CTCATGGC,0.00411
4,TAGCTATA,0.00093
5,AACCGCAA,0.161
6,GTCTCTAA,-0.0296
7,CCAAAGCC,-0.0564
8,CCGTCTAG,-0.00594
9,ACACAGTC,-0.101
10,CTGATGCC,0.0862
11,CTAATCAC,0.18
12,CTTTCTCC,-0.0187
13,ACTACATA,-0.0386
14,ATTGGACC,-0.154
15,CTCACCAA,-0.0127
16,ACGTGCGA,-0.0743
17,ATGGAATC,0.157
18,GCTGGCAC,-0.198
19,CAGCACCC,-0.206
20,ATTTGTCC,0.151
21,ATCAAGAG,0.0289
22,ATCCCGCC,0.0258

# Reformatted tab-delimited: part of the list above.
row	Sequence	PBM E-score
2	GAGAGCAA	0.0598
3	GAATCGTA	-0.0517
4	AGCTTTAA	0.117
5	AGATTACA	0.0368
6	GCTAAACC	0.0346
7	TCGTATAA	0.19
8	CCAAAGAG	-0.0125
9	AATTTTGG	0.0485
10	AAATAACC	0.0509
11	GAGGTGAA	-0.0223
12	CCCACATC	-0.0896
13	CAACCGTG	0.0392
14	ACGAGTAC	0.0638
15	AGAGGAGG	-0.344
16	ATACGCCA	-0.0438
17	CGGCGGGA	0.24
18	AAGGAATA	0.0561
19	CACGCCCA	-0.172
20	GCATGTCA	-0.156
21	CGTCGAAA	0.161
22	GCTTCAAC	-0.0434
23	CCCTCCGG	0.1
24	GGCCGAAC	0.305
25	GCCCTAAC	0.111
1	AAGGACTG	0.00267
2	GTTCCCGA	0.179
3	CTCATGGC	0.00411
4	TAGCTATA	0.00093
5	AACCGCAA	0.161
6	GTCTCTAA	-0.0296
7	CCAAAGCC	-0.0564
8	CCGTCTAG	-0.00594
9	ACACAGTC	-0.101
10	CTGATGCC	0.0862
11	CTAATCAC	0.18
12	CTTTCTCC	-0.0187
13	ACTACATA	-0.0386
14	ATTGGACC	-0.154
15	CTCACCAA	-0.0127
16	ACGTGCGA	-0.0743
17	ATGGAATC	0.157
18	GCTGGCAC	-0.198
19	CAGCACCC	-0.206
20	ATTTGTCC	0.151
21	ATCAAGAG	0.0289
